Tests used:
[1] = system: NIH3T3 cells expressing FGFR3 K650E; conditions: K650E NIH3T3 cells vs FGFR3TACC3-fusion cells, in words
Experimental: (§1) For the cell viability assay in the presence of FGFR inhibitors, NIH3T3 cells transfected with the stated FGFR3 variants were plated in 96-well plates, 1000 cells per well. Twenty-four hours later the cells were treated with various concentrations of kinase inhibitor. Forty-eight hours later, fresh inhibitor was added and the cells incubated for 72 hours. Cell viability was measured through the addition of CellTiter-Glo (Promega) and luminenscence measured with a standard luminometer plate reader. Data were normalised and fitted to a log(inhibitor) vs. response curve (three parameters) with GraphPad Prism.

[2] = system: NIH3T3 cells expressing FGFR3 N540K; conditions: N540K NIH3T3 cells vs FGFR3TACC3-fusion cells, in words
Experimental: as §1

Compound: COc1cc(OC)cc(N(CCNC(C)C)c2ccc3ncc(-c4cnn(C)c4)nc3c2)c1 [JNJ42756493]
- effect of variant on inhibitor efficacy in cells [1]: reduce efficacy
- effect of variant on inhibitor efficacy in cells [2]: reduce efficacy

Reference: PMC5029699, “Landscape of activating cancer mutations in FGFR kinases and their differential responses to inhibitors in clinical use” (Oncotarget, 2016)
